Measurements reported in PubChem BioAssay AID493246 (Drosophila RNAi Screening Center, 2011)
In all, the deposit lists about 21,000 reagents; below is a random part of those with a known target gene and a result. In the full data, 429 (2%) are marked active. 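Values are raw and not normalised between plates; calls rest on per-plate z-scores that were not deposited.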 Unmarked entries are inactive. Names joined by + are all predicted targets of the reagent. Reagent sequences are not shown. Not stated in the record: the amount of reagent, the time to read-out.

- Purpose: 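Identify essential fly genes by loss of cell viability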 (primary screen)
- System: Drosophila Kc and S2R+ cells
- Reagent: long dsRNA against Drosophila genes
- Read-out: 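Raw, unnormalised count of remaining cells in each well; per-plate z-scores of cell number underlie the calls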
- Direction: Kc cell number and S2R+ cell number: higher = more cells remaining
- Call rule: 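Counted as a hit if cell number falls by a z-score of at least 3 within its plate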

Knock-down of CG7974 [DRSC08607] came out at: Kc cell number, rep 1 = 1.33e6; Kc cell number, rep 2 = 1.40e6; S2R+ cell number, rep 1 = 1.23e6; S2R+ cell number, rep 2 = 1.20e6.
After knock-down of Tsp66A + CG42661 + CG42660 [DRSC10233], the screen gave Kc cell number, rep 1 = 1.52e6; Kc cell number, rep 2 = 1.34e6; S2R+ cell number, rep 1 = 1.14e6; S2R+ cell number, rep 2 = 1.23e6.
MED11 [DRSC10739] gave Kc cell number, rep 1 = 4.88e5 (active); Kc cell number, rep 2 = 7.12e5; S2R+ cell number, rep 1 = 5.21e5; S2R+ cell number, rep 2 = 6.62e5.
CG14736 [DRSC14956] showed Kc cell number, rep 1 = 1.68e6; Kc cell number, rep 2 = 1.62e6; S2R+ cell number, rep 1 = 1.19e6; S2R+ cell number, rep 2 = 1.33e6.
Hsp27 [DRSC11190] scored Kc cell number, rep 1 = 1.35e6; Kc cell number, rep 2 = 1.33e6; S2R+ cell number, rep 1 = 1.32e6; S2R+ cell number, rep 2 = 1.21e6.
For CG14455 [DRSC11712] the deposit lists Kc cell number, rep 1 = 1.52e6; Kc cell number, rep 2 = 1.56e6; S2R+ cell number, rep 1 = 1.20e6; S2R+ cell number, rep 2 = 1.35e6.
CG3649 [DRSC04400] gave Kc cell number, rep 1 = 1.94e6; Kc cell number, rep 2 = 1.95e6; S2R+ cell number, rep 1 = 1.27e6; S2R+ cell number, rep 2 = 1.38e6.
Against Klp59C [DRSC04348], the entry reads Kc cell number, rep 1 = 1.70e6; Kc cell number, rep 2 = 1.73e6; S2R+ cell number, rep 1 = 1.35e6; S2R+ cell number, rep 2 = 1.54e6.

2 successive entries already listed, for reference:
Hsp27 [DRSC11190]: Kc cell number, rep 1 = 1.35e6; Kc cell number, rep 2 = 1.33e6; S2R+ cell number, rep 1 = 1.32e6; S2R+ cell number, rep 2 = 1.21e6
CG14455 [DRSC11712]: Kc cell number, rep 1 = 1.52e6; Kc cell number, rep 2 = 1.56e6; S2R+ cell number, rep 1 = 1.20e6; S2R+ cell number, rep 2 = 1.35e6

More results follow.
Against CG13133 [DRSC02230] the deposit lists Kc cell number, rep 1 = 1.78e6; Kc cell number, rep 2 = 1.82e6; S2R+ cell number, rep 1 = 1.20e6; S2R+ cell number, rep 2 = 1.35e6.
For CG7196 (retired record) [DRSC01000], the entry reads Kc cell number, rep 1 = 1.45e6; Kc cell number, rep 2 = 1.51e6; S2R+ cell number, rep 1 = 1.01e6; S2R+ cell number, rep 2 = 1.11e6.
With knock-down of CG7196 (retired record) [DRSC03023] the results were Kc cell number, rep 1 = 1.54e6; Kc cell number, rep 2 = 1.56e6; S2R+ cell number, rep 1 = 1.05e6; S2R+ cell number, rep 2 = 1.24e6.
For N [DRSC18685] the deposit lists Kc cell number, rep 1 = 1.43e6; Kc cell number, rep 2 = 1.48e6; S2R+ cell number, rep 1 = 1.06e6; S2R+ cell number, rep 2 = 1.20e6.
After knock-down of CG11857 [DRSC14411] the results were Kc cell number, rep 1 = 1.30e6; Kc cell number, rep 2 = 1.28e6; S2R+ cell number, rep 1 = 9.98e5; S2R+ cell number, rep 2 = 1.04e6.
With knock-down of CG6225 [DRSC15996], the record shows Kc cell number, rep 1 = 1.64e6; Kc cell number, rep 2 = 1.70e6; S2R+ cell number, rep 1 = 1.28e6; S2R+ cell number, rep 2 = 1.38e6.
After knock-down of CG17440 [DRSC18126], the record shows Kc cell number, rep 1 = 1.54e6; Kc cell number, rep 2 = 1.51e6; S2R+ cell number, rep 1 = 1.03e6; S2R+ cell number, rep 2 = 1.09e6.
With knock-down of Csk [DRSC12861], the screen gave Kc cell number, rep 1 = 1.40e6; Kc cell number, rep 2 = 1.55e6; S2R+ cell number, rep 1 = 1.03e6; S2R+ cell number, rep 2 = 1.16e6.
Csk [DRSC15223] showed Kc cell number, rep 1 = 1.37e6; Kc cell number, rep 2 = 1.47e6; S2R+ cell number, rep 1 = 1.00e6; S2R+ cell number, rep 2 = 1.09e6.
mnd [DRSC11370] scored Kc cell number, rep 1 = 1.44e6; Kc cell number, rep 2 = 1.45e6; S2R+ cell number, rep 1 = 1.22e6; S2R+ cell number, rep 2 = 1.35e6.
For goe [DRSC19345] the deposit lists Kc cell number, rep 1 = 1.54e6; Kc cell number, rep 2 = 1.47e6; S2R+ cell number, rep 1 = 1.13e6; S2R+ cell number, rep 2 = 1.10e6.
After knock-down of CG34015 [DRSC19140], the screen gave Kc cell number, rep 1 = 1.23e6; Kc cell number, rep 2 = 1.33e6; S2R+ cell number, rep 1 = 1.07e6; S2R+ cell number, rep 2 = 1.18e6.
CIAPIN1 [DRSC03559] gave Kc cell number, rep 1 = 1.32e6; Kc cell number, rep 2 = 1.40e6; S2R+ cell number, rep 1 = 1.23e6; S2R+ cell number, rep 2 = 1.28e6.
